Experimental data taken from paper doi:10.1101/2021.02.19.432017 (bioRxiv, 2021).
These are yes or no findings as the source states them, for the method shown.

Target: GST-fused Raf-1 CR1 domain (RBD and CRD) (mouse) (UniProt Q99N57)
Assay: BLI

binding: no binding
B1: Ras suppressor-1 (Rsu-1), wild type (natural protein)
chain: MSKSLKKLVEESREKNQPEVDMSDRGISNMLDVNGLFTLSHITQLVLSHNKLTMVPPNIAELKNLEVLNFFNNQIEELPTQISSLQKLKHLNLGMNRLNTLPRGFGSLPALEVLDLTYNNLSENSLPGNFFYLTTLRALYLSDNDFEILPPDIGKLTKLQILSLRDNDLISLPKEIGELTQLKELHIQGNRLTVLPPELGNLDLTGQKQVFKAENNPWVTPIADQFQLGVSHVFEYIRSETYKYLYGRHMQANPEPPKKNNDKSKKISRKPLAAKNR
